Reference: the supplement of paper PMC12823440, “Inhibitors supercharge kinase turnover through native proteolytic circuits” (Nature, 2025)
The other results are listed elsewhere or left out. The calls rarely recur for the same compound in another form.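 Kinases were expressed as nanoluciferase fusions in K562 cells and luminescence was read every 4 h between 2 and 18 h as percent of control, DMSO set to 100% and a positive control to 0%. A time point counts as decreased when the signal drops significantly (2 sigma). The hit call is the authors' own, does not follow from the count of time points alone, and its rule is not shown.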

By UniProt entry, the sequences of proteins in these tests, tags left out.
UniProt P36888, whole entry: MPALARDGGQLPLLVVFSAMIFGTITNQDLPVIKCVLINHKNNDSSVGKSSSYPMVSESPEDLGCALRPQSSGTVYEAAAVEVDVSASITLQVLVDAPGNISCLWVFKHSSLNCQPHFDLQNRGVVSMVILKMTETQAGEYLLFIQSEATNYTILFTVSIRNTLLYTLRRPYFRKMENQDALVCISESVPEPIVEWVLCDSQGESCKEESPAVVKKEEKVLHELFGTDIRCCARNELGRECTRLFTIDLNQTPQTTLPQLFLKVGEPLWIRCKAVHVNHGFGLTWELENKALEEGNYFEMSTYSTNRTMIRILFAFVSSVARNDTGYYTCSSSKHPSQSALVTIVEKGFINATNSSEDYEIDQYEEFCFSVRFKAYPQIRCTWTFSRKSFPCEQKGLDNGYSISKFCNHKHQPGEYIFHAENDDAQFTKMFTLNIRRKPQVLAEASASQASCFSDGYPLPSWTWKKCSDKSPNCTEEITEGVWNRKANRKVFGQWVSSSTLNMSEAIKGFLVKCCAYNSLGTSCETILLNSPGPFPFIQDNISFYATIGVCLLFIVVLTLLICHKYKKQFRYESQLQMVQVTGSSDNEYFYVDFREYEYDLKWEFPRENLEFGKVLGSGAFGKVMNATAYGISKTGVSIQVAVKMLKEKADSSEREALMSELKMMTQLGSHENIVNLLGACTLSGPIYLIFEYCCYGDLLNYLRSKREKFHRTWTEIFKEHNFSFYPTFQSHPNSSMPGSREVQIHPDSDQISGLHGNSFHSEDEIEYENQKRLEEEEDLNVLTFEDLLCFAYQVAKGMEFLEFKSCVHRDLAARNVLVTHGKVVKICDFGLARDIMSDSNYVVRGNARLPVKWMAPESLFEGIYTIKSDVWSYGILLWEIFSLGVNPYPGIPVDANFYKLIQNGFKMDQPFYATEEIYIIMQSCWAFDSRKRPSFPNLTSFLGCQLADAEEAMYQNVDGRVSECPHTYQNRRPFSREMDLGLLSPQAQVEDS

molecular target: FLT3 (UniProt P36888); assay: number of time points (of 5) at which kinase-Nluc abundance scored as decreased, DMSO-normalised (count); higher = more persistent destabilization; details: K562; 2-18 h

SMILES	number of time points
CC(C)c1ccc(CC(=O)N2CCN(c3ccc(C#N)nn3)CC2)cc1 (10 µM)	0
C=CC(=O)N1CCC[C@@H](n2nc(C(=O)Nc3ccc(CC(=O)N(C)C)c(C)c3C)c3c(N)ncnc32)C1 (10 µM)	0
O=C(O)CCc1ccc(NCc2cccc(Oc3ccccc3)c2)cc1 (10 µM)	0
CCc1c(C)sc(NC(=S)NC(=O)c2ccc(Cl)cc2)c1C(N)=O (10 µM)	0
C=CC(=O)Nc1cccc(-n2c(=O)cc(C)c3cnc(Nc4ccc(OCCN(C)C)cc4OC)nc32)c1 (10 µM)	0
C=C(F)C(=O)N1CCN(c2nc(OC[C@@H]3CCCN3C)nc3c2CCN(c2cccc4cccc(Cl)c24)C3)C[C@@H]1CC#N (2.5 µM)	0
COc1ncc(Nc2ncc([C@@H](C)N3CCN(S(C)(=O)=O)CC3)cc2-c2nc(C)nc(N)n2)cc1F (10 µM)	0
COc1ccc2c(c1OC)OC1c3ccc(O)cc3OCC21 (centres undefined) [Methylnissolin] (10 µM)	0
O=C(CO)N1CCC(c2n[nH]c(-c3ccc(Cl)cc3)c2-c2ccncn2)CC1 (10 µM)	0
O=C1NC(=O)/C(=C/c2ccc(-c3ccc(F)cc3O)o2)S1 (10 µM)	0
Cc1cc(C(C)Nc2ccccc2)c2nc(N3CCOCC3)cc(=O)n2c1 (centres undefined) (10 µM)	0
Cc1cccc(-c2[nH]ncc2-c2ccc3ncccc3n2)n1 (10 µM)	0
Cc1cc2ncc(-c3ccccc3)nc2cc1C (10 µM)	0
COc1cc(C(=O)N2CCC(N3CCN(C)CC3)CC2)ccc1Nc1ncc2c(n1)N(C)c1ccccc1C(=O)N2C (10 µM)	0
